Results of single-concentration screens

Chains of the proteins cited; added tags and fusions are not shown. Residues count along the entry.
UniProt Q8IDJ8, 1-583: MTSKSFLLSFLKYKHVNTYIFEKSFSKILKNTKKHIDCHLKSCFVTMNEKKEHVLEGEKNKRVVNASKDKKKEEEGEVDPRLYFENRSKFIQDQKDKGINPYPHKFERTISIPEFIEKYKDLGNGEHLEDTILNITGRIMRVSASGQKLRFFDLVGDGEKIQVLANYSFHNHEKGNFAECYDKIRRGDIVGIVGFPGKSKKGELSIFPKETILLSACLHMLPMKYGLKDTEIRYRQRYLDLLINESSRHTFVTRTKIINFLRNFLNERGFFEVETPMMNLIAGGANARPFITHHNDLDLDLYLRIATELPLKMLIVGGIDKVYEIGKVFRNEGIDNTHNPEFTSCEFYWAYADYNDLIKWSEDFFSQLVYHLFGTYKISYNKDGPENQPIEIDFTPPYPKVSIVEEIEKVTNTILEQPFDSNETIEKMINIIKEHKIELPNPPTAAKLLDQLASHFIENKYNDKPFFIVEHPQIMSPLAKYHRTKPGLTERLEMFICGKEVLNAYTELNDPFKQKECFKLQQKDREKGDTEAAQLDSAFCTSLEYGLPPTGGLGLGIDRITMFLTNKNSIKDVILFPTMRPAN

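Lysine-tRNA ligase, Plasmodium falciparum 3D7 (UniProt Q8IDJ8). Enzyme assay of the cytosolic lysyl-tRNA synthetase in 384-well plates, read by luminescence. Compounds at 30 µM. Higher reads as stronger inhibition, judged from the few compounds that gave an IC50. Of about 69,000 compounds tested this way, about 49 (0.071%) reached 50% or more in at least one test.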

Values are the deposited “Percent Effect”, in %.
The record does not define 0% and 100%; most values in the screen are far below 50% and negative numbers occur (in some assays of this library far below -100).
Compounds were drawn at random from those tested, without regard to their results.

COc1ccnc(N2CCN(C(=O)c3ccn(C)c(=O)c3)CC2)n1 read 3.003%.
CC(=O)N1CC(Cc2nccc3ccn(C)c23)C1 read 2.347%.
Cc1ccc(N2CC[C@H]3O[C@@H](C(=O)N4CCCO4)CC[C@H]32)nn1 read 2.767%.
C[C@H]1CN2C[C@H](O)CC2CN1Cc1ccc2nccnc2c1 (some centres unmarked) read -0.6393%.
Cc1ccccc1CNC(C)c1ccc(OCC(=O)NC2CC2)cc1 (centres unmarked) read 1.689%.
CCc1sc(C(=O)Nc2cnn(CC(N)=O)c2)cc1C read 7.244%.
CCn1nc(C)c(CCn2ccnc2-c2cc3n(n2)CCCNC3)c1C read 4.739%.
O=C(CCN1CCOCC1)Nc1cccc(CNCc2ccsc2)c1 read -0.2013%.
CC(NC(=O)Nc1nccs1)c1ccc(S(C)(=O)=O)cc1 (centres unmarked) read 2.951%.
O=S(=O)(NCC1(c2cccs2)CCCC1)c1cccnc1 read 2.702%.
COc1ccc(CCN2CC(NCc3ncc[nH]3)CC2=O)cc1 (centres unmarked) read 4.118%.
Cc1occc1C(=O)N1CCCN(Cc2cnn(C(C)C)c2)CC1 read 5.266%.
CCc1nccc(CN2CCCC(c3nn(C)c(=O)n3CC)C2)n1 (centres unmarked) read 8.214%.
Cc1csc(N2CCN(C(=O)Cc3cccs3)CC2)n1 read -0.7128%.
CSCCC(O)C(=O)N1CCN(Cc2cccc(Cl)c2)CC1 (centres unmarked) read 10.76%.
Cc1cccc(CN2CCCn3c(nnc3Cn3cccn3)C2)n1 read 4.203%.
CN1CCC(C2CCN(Cc3cccc(-n4cccn4)c3)CC2)C1 (centres unmarked) read 1.991%.
NC(=O)C1=NN2C(=NS(=O)(=O)c3ccccc32)N1 read 5.964%.
O=C(NC[C@H]1OC[C@@H](NC2CCOCC2)[C@@H]1O)C1CCCC1 read 5.296%.
CCn1c(C)nnc1CN(C)C1CCN(Cc2nccn2C)C1 (centres unmarked) read -3.612%.
Cc1cc2cccc(NC(=O)N3CC[C@@H]4CC[C@H](C3)N4C)c2o1 read -3.681%.
COc1ccccc1C(=O)N1CCCC1c1ncc2c(n1)CCNC2 (centres unmarked) read 8.471%.
COCCN(Cc1nc2c(cnn2C)c(=O)[nH]1)C(C)COC (centres unmarked) read 0.9437%.
O=C(c1cc(C2CCCCN2C(=O)C2CCC2)n[nH]1)N1CCOCC1 (centres unmarked) read 0.4033%.
Cn1cc2c(n1)C(CNCc1ccco1)OCC2 (centres unmarked) read 1.32%.
Cc1cc(NC(=O)N2CCN(C)CC2C)n(C(C)(C)C)n1 (centres unmarked) read 3.152%.
Cc1cnn(C2CN(Cc3nc(-c4ccco4)no3)C2)c1 read -2.492%.
CN1C(=O)C(c2cccnc2)CC12CCN(Cc1nccs1)CC2 (centres unmarked) read 4.026%.
O=S(=O)(Nc1cnc(N2CCOCC2)nc1)c1ccc(Cl)cc1 read 1.327%.
CCN1C(=O)CC(c2ccccc2)C12CCN(CC1CCOCC1)CC2 (centres unmarked) read -1.15%.
Cc1ncc(CNCC2CCCN2c2cccnn2)s1 (centres unmarked) read 2.71%.
CCn1c(N)nc2cc(C(=O)N3CCCOCC3)cnc21 read 4.551%.
COCCCN(Cc1cnc(N2CCCC2)nc1)C1CCN(C)CC1 read 2.398%.
Cc1nn(C)c(C)c1CC(=O)N1CCCC(CNS(C)(=O)=O)C1 (centres unmarked) read 2.068%.
O=C1NC2(CCN(Cc3cccnc3)CC2)CC1c1cccnc1 (centres unmarked) read 6.286%.
COc1ccc(CCC(=O)NCc2cc(C)on2)cc1 read -1.324%.
CCc1nnc(CN(C)c2nccc(N3CCCC(O)C3)n2)o1 (centres unmarked) read -3.516%.
Cc1nc2cc(F)cc(C(=O)N3CCN(CC(C)O)CC3)c2nc1C (centres unmarked) read 6.895%.
CN(Cc1nc(Cc2cccc(C(F)(F)F)c2)no1)C1CCOCC1 read 4.238%.
CN(C)C(=O)CNC(=O)c1cc2c(s1)CCN2S(C)(=O)=O read 1.203%.
CCN(Cc1cccc2c1OCO2)C(=O)C(C)c1cccnc1 (centres unmarked) read -1.854%.
Cc1ccc2[nH]c(C(=O)N3CCCC3Cn3cccn3)cc2c1 (centres unmarked) read 2.011%.
Cc1c(-c2nnc(SCC(=O)O)n2C(C)c2ccccc2)cnn1C (centres unmarked) read 4.119%.
Cc1ccc(NC(=O)NC(C)Cn2cccn2)cc1 (centres unmarked) read 0.7425%.
CSCCc1c(-c2ccccc2)ncn1CCNc1cccnc1 read 1.28%.
COCC(c1cccc(C(F)(F)F)c1)N(C)C(=O)c1ccncc1 (centres unmarked) read 3.747%.
CCOc1cc(CNC(=O)C(C#N)c2nc(C)cs2)ccc1OC(F)F (centres unmarked) read 0.8016%.
Cc1cccc(COC2COC3(CCN(Cc4ccoc4)CC3)C2)n1 (centres unmarked) read -1.853%.
O=C1NC2(CCN(C(=O)c3ccc(Cl)cn3)CC2)CC1c1ccccc1 (centres unmarked) read -4.261%.
Cc1scc(C(=O)N2CCC3(CC(=O)NC3=O)C2)c1-c1ccccc1 (centres unmarked) read -0.6938%.
COCCCNC(=O)c1cc(C(C)C)nc(N2CCCCCC2)n1 read 4.536%.
c1c[nH]c(CN2CCC3(CC2)COCCN(CCN2CCCC2)C3)c1 read -0.8766%.
CCc1n[nH]c(C2CN(C(=O)c3cnc[nH]3)CCO2)n1 (centres unmarked) read 1.537%.
CCN1CCc2cc(-c3cncn3CC(=O)NC(C)(C)C)ccc21 read 0.942%.
COc1cccc(N2CC3(CCN(c4ccncn4)C3)CC2=O)c1 (centres unmarked) read -1.597%.

The first 3 entries again:

- COc1ccnc(N2CCN(C(=O)c3ccn(C)c(=O)c3)CC2)n1 : 3.003%
- CC(=O)N1CC(Cc2nccc3ccn(C)c23)C1 : 2.347%
- Cc1ccc(N2CC[C@H]3O[C@@H](C(=O)N4CCCO4)CC[C@H]32)nn1 : 2.767%

Source: ChEMBL document CHEMBL3988442, “University of Dundee, Small-Polar-MMV Screening Library” (2021).